Results deposited as PubChem BioAssay AID1259254 (NCATS, 2017)

Test: 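Gene knock-downs that lead to re-replication, shown by excess G2 DNA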 (primary screen)
Cell system: human HCT116 colorectal cancer cells
Knock-down reagent: single siRNA against human genes
Duration: 3 days
Measurement: 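Imaged Hoechst DNA stain sorts each cell into a cycle phase by DNA amount; per plate, G2 fraction set to 0% for non-targeting and 100% for GMNN siRNA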
Reading the numbers: G2 robust z-score and G2 cells, % of GMNN control: higher = more G2 cells, more excess DNA replication; raw share of cells in G2: higher = larger share of cells with G2 DNA content
Call rule: 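An siRNA counts as active if its G2 robust z-score lies at least 5 MADs above the screen median; here such calls match roughly 38% of GMNN control or more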
Shown is a random part of about 59,000 deposited reagents. About 1,550 of them (2.6%) count as active. 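G2 share is only a proxy for re-replication; each gene was hit by three separate siRNAs, and active genes were retested.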 Raw values vary from plate to plate and are shown uncorrected. A number with no mark means an inactive call. Reagents against one gene are numbered here. Not given: the amount of reagent.

no.	gene	siRNA no.	G2 robust z-score	G2 cells, % of GMNN control	raw share of cells in G2 (%)
1	COL7A1	1	0.147	4	5.05
2	COL7A1	2	-0.57	-1.05	4.36
3	COL7A1	3	2.77	22.4	11.2
4	SLC17A7	1	2.27	19	14.7
5	SLC17A7	2	0.154	4.05	6.02
6	SLC17A7	3	0.576	7.02	6.95
7	NRG3	1	-0.588	-1.17	4.53
8	NRG3	2	0.377	5.62	6.46
9	NRG3	3	-0.616	-1.37	2.66
10	DSTYK	1	-1.36	-6.6	3.53
11	DSTYK	2	-1.26	-5.89	3.05
12	DSTYK	3	0.0181	3.09	4.67
13	ABHD17C	1	-0.00634	2.92	5.5
14	ABHD17C	2	7.21 (active)	53.7	30.1
15	ABHD17C	3	-0.325	0.678	3.24
16	MRPL27	1	-0.377	0.314	3.97
17	MRPL27	2	2.07	17.5	11.2
18	MRPL27	3	-1.02	-4.21	1.93
19	PRSS58	1	-0.419	0.0184	4.27
20	PRSS58	2	1.12	10.8	10.2
21	PRSS58	3	0.129	3.88	5.75
22	PAWR	1	0.794	8.55	8.61
23	PAWR	2	-1.15	-5.09	2.21
24	PAWR	3	1.61	14.3	8.53
25	SULT1A1	1	-0.357	0.458	5.84
26	SULT1A1	2	-0.113	2.17	5.29
27	SULT1A1	3	1.01	10.1	7.29
28	METTL8	1	0.128	3.87	6.05
29	METTL8	2	0.0544	3.35	5.77
30	METTL8	3	0.372	5.58	3.9
31	AP3S1	1	0.241	4.66	6.63
32	AP3S1	2	1.25	11.8	9.3
33	AP3S1	3	-0.00886	2.91	5.1
34	THAP5	1	1.19	11.3	7.67
35	THAP5	2	-0.903	-3.39	1.82
36	THAP5	3	-0.0531	2.59	3.58
37	ADAMTS7	1	-0.0848	2.37	6.39
38	ADAMTS7	2	4.75	36.4	17.8
39	ADAMTS7	3	-0.263	1.11	4.33
40	BDKRB1	1	0.106	3.71	7.17
41	BDKRB1	2	-0.0329	2.74	5.47
42	BDKRB1	3	4.59	35.3	14.1
43	SAP30	1	0.328	5.28	6.6
44	SAP30	2	1.41	12.9	9.8
45	SAP30	3	1.31	12.2	10.1
46	RBPJL	1	1.09	10.6	10.6
47	RBPJL	2	3.22	25.7	12.7
48	RBPJL	3	0.791	8.53	6.79
49	SLC35D3	1	-0.0324	2.74	5.29
50	SLC35D3	2	-0.44	-0.128	3.94
51	SLC35D3	3	-0.515	-0.655	2.97
52	HENMT1	1	0.68	7.75	7.2
53	HENMT1	2	-0.31	0.79	3.57
54	HENMT1	3	-0.838	-2.93	0.964
55	ARFRP1	1	-0.493	-0.503	4.55
56	ARFRP1	2	-0.0583	2.56	6.17
57	ARFRP1	3	0.307	5.13	4.95
58	DUSP11	1	-0.923	-3.53	3.65
59	DUSP11	2	0.242	4.67	5.71
60	DUSP11	3	-0.549	-0.893	3.23
61	CFAP68	1	0.228	4.57	3.9
62	CFAP68	2	1.52	13.6	10.5
63	CFAP68	3	4.59	35.3	20.4
64	RAD21-AS1	1	1.15	11.1	6.37
65	RAD21-AS1	2	-0.0321	2.74	4.68
66	RAD21-AS1	3	-0.253	1.19	3.7
67	A2ML1	1	1.4	12.8	8.12
68	A2ML1	2	0.498	6.47	4.91
69	A2ML1	3	-0.695	-1.92	2.4

Quoted from the listing for reference:
no.	gene	siRNA no.	G2 robust z-score	G2 cells, % of GMNN control	raw share of cells in G2 (%)
57	ARFRP1	3	0.307	5.13	4.95
58	DUSP11	1	-0.923	-3.53	3.65
59	DUSP11	2	0.242	4.67	5.71
60	DUSP11	3	-0.549	-0.893	3.23
61	CFAP68	1	0.228	4.57	3.9
62	CFAP68	2	1.52	13.6	10.5
63	CFAP68	3	4.59	35.3	20.4
64	RAD21-AS1	1	1.15	11.1	6.37
65	RAD21-AS1	2	-0.0321	2.74	4.68
